Source: article doi:10.1101/2024.02.13.580115
Where two headings read alike, the source gives them in different places. These are yes or no findings as the source states them, for the method shown. Binding calls can cover weak binding; strength is not graded here.

How the values were obtained:
[1] = target: Schizophyllum commune WC-2 fused to the GAL4 binding domain (Schizophyllum commune H4-8); assay: two-hybrid
[2] = target: Schizophyllum commune WC-2 fused to the GAL4 binding domain (Schizophyllum commune H4-8); assay: two-hybrid; remark: listed apart in the source

binding [1]: binds
binding [2]: binds
Substance: Schizophyllum commune WC-1 fused to the GAL4 activating domain (from UniProt A0ACF2F142)
